Some of the results follow.

Protein sequences, listed by entry. Tags and fused reporters are not part of them. Lines headed by an entry give the natural chain unless they say otherwise; changes in a name come on top.
UniProt Q9Y5P6: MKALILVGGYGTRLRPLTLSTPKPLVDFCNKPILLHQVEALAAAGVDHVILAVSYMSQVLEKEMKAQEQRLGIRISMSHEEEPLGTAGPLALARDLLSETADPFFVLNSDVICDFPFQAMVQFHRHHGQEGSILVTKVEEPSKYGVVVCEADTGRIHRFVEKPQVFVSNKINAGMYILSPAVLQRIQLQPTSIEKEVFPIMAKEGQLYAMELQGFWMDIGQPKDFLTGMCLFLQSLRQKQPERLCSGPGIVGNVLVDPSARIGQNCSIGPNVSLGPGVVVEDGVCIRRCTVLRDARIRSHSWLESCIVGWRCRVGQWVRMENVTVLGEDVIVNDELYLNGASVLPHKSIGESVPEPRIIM
UniProt P32189: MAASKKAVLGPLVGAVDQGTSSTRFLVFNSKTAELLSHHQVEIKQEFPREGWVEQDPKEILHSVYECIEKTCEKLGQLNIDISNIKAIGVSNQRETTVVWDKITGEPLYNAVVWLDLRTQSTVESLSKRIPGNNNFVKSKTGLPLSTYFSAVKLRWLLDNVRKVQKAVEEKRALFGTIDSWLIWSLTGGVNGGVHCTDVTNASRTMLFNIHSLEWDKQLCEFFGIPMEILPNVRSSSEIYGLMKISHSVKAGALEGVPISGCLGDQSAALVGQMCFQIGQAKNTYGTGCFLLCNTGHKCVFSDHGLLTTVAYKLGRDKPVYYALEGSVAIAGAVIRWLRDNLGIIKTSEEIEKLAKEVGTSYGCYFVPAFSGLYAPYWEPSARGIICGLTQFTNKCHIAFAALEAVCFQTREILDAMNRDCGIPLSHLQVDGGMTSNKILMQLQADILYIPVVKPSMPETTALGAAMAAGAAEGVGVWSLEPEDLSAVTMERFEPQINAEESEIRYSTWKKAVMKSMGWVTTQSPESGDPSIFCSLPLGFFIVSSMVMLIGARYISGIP
UniProt P28799: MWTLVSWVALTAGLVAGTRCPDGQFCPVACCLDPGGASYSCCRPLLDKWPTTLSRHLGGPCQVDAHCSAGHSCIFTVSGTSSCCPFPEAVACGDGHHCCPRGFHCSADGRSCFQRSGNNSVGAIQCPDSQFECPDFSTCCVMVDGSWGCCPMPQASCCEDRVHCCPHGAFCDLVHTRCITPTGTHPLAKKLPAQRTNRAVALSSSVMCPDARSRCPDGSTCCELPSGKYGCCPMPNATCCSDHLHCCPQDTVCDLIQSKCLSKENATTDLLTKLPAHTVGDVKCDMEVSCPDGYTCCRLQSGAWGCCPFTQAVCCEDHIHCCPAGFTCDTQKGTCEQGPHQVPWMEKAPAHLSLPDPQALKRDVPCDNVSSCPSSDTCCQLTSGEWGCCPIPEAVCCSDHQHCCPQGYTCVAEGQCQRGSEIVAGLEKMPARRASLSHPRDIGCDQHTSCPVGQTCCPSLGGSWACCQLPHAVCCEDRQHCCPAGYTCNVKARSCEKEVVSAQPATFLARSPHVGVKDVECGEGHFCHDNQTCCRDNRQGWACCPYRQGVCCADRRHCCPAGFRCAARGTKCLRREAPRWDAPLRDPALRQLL
UniProt Q9BRT9, whole entry, looked up: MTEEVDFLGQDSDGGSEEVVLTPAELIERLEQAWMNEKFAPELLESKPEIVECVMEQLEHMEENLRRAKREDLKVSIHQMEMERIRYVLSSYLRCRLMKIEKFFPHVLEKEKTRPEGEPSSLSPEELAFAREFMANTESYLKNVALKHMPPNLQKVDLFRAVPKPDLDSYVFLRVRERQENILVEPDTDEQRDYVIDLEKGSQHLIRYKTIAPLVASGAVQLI
UniProt Q8N335: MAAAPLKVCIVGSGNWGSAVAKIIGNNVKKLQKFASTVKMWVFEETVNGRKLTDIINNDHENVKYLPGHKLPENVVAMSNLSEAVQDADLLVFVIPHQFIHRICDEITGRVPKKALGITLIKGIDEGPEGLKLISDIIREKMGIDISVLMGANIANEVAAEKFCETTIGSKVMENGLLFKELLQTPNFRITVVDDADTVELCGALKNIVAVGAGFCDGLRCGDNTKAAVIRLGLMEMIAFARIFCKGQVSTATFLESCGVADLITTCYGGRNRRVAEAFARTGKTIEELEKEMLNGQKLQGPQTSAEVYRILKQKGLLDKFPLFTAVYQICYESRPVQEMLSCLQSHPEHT
UniProt O95249: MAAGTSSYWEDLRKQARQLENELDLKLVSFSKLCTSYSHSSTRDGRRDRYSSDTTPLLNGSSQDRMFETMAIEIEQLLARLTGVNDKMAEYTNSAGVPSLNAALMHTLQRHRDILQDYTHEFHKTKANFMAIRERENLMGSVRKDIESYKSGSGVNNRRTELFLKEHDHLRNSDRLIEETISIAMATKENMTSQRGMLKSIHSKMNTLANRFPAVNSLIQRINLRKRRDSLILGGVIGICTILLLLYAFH
UniProt Q9UKJ3: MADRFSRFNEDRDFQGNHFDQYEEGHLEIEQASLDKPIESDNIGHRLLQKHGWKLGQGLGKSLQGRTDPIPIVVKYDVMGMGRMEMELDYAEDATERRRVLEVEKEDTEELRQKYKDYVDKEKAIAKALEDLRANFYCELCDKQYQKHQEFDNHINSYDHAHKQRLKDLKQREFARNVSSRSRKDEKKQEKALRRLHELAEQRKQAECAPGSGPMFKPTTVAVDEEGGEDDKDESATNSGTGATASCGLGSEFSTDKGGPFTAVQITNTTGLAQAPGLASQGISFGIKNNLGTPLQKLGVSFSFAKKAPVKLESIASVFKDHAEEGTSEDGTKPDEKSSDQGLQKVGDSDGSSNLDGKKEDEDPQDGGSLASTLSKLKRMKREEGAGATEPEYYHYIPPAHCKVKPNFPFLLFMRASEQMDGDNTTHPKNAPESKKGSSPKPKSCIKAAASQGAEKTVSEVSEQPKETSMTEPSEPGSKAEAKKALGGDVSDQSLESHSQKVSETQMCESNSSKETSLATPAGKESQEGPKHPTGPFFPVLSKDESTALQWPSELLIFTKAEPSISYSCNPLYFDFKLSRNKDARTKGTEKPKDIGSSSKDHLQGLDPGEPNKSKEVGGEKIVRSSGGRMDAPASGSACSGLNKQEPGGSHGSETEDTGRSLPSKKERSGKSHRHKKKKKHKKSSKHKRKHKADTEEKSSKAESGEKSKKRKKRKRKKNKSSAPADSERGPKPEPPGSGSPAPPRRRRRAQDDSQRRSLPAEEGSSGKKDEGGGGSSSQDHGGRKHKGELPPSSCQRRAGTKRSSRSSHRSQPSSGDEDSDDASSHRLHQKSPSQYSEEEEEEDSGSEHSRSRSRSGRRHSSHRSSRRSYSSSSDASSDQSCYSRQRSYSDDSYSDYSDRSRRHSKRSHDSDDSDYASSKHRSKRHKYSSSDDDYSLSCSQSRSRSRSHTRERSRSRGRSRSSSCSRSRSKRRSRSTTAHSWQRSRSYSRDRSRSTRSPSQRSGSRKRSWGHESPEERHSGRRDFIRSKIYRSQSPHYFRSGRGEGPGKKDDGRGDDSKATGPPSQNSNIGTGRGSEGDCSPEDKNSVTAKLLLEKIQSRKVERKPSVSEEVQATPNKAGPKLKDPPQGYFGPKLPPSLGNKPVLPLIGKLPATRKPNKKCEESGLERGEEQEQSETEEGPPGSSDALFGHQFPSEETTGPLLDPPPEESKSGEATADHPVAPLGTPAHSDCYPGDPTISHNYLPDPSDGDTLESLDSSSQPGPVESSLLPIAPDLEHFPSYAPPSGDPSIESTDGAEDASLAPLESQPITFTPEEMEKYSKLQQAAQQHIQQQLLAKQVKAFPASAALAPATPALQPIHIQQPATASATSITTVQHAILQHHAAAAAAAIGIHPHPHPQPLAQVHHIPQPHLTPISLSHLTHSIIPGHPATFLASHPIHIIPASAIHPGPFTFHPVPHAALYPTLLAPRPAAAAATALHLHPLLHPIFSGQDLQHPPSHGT
UniProt Q8IXQ4: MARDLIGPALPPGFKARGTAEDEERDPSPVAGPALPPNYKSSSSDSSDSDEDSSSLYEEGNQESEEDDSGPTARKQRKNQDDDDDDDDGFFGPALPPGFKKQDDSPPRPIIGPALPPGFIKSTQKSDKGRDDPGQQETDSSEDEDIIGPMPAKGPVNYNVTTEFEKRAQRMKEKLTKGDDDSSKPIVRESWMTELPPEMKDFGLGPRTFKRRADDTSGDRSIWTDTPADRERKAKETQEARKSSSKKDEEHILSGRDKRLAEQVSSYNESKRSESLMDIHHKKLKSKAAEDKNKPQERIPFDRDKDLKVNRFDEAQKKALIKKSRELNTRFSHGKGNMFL
UniProt Q9UHW5, whole entry, looked up: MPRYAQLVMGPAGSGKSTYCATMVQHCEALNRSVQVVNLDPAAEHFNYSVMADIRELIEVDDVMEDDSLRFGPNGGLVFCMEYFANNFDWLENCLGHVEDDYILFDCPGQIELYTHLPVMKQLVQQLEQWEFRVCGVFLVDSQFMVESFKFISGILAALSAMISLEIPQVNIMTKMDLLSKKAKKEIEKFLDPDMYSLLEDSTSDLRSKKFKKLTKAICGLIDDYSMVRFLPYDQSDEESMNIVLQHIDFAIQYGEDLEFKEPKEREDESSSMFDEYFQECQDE
UniProt Q8TDQ7: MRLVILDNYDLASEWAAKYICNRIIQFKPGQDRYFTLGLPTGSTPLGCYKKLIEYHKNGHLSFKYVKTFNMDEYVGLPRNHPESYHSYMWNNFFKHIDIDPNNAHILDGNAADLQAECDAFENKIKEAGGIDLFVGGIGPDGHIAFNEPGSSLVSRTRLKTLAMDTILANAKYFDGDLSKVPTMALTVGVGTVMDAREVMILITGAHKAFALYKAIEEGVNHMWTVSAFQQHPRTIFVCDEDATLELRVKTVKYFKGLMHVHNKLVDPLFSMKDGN
UniProt Q9P2T1: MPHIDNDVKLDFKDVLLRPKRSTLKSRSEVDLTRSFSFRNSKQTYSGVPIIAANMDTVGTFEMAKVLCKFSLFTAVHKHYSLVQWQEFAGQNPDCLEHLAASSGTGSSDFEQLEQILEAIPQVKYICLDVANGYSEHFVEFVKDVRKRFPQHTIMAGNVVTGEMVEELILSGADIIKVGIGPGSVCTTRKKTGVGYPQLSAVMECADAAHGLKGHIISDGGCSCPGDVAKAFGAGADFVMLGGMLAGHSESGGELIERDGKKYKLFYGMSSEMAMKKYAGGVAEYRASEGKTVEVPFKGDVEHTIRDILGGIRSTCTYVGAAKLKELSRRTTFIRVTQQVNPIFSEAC
UniProt Q9Y223: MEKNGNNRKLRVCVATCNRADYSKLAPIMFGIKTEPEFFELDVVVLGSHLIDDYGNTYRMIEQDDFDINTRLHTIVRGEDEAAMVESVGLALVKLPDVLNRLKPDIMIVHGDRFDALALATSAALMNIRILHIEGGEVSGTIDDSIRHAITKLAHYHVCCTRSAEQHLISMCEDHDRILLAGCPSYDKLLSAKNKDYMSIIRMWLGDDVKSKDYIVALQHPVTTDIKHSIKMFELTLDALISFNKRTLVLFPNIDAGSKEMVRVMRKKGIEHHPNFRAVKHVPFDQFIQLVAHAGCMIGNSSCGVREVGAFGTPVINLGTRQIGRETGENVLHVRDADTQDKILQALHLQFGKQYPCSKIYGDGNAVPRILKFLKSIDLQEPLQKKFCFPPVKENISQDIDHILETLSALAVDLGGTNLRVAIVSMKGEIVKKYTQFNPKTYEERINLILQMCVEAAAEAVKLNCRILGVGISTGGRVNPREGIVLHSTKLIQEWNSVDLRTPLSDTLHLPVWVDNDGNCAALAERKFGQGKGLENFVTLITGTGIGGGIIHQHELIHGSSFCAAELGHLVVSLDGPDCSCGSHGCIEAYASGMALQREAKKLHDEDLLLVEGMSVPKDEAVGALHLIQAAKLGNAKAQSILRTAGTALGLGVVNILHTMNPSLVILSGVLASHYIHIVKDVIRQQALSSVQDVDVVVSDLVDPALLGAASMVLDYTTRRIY
UniProt Q5VW38: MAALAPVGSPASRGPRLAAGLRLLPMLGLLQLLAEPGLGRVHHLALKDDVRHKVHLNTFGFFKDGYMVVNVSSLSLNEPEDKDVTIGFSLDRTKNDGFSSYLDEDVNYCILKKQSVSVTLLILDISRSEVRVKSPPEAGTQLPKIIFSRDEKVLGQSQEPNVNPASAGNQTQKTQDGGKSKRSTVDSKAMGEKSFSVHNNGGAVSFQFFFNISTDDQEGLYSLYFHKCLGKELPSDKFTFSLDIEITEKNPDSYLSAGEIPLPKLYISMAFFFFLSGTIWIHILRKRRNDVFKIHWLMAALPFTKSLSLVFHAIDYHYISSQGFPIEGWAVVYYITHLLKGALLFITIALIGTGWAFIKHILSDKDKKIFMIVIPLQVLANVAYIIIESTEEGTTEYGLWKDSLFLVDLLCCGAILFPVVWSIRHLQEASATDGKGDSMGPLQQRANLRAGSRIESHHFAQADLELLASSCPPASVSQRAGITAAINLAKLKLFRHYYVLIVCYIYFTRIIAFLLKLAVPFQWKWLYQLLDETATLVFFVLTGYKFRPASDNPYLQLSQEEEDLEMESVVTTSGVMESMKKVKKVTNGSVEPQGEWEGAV

Compound in the assay: Cc1cccc(CC(=O)N2CCc3c2ccc(-c2cn(C)c4ncnc(N)c24)c3F)n1
Nature of the assay: log2 fold change, soluble protein after heating vs DMSO (PISA); higher = thermal stabilisation; K562 cells, 10 uM, 30 min; active = over 0.2 and 3.5 SD of the protein, either way, in both replicates (recomputed). The procedure, abridged: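 For each measurement, 10 μM compound was applied for 30 min to K562 cells at 2×10^6 cells/mL. Aliquots were heated for 3 min across 48°C-58°C, pooled, and extracted in PBS with 0.5% NP-40 at 4°C; the supernatant after 21,000xg for 90 min was soluble protein. This was quantified by TMTpro 16plex LC-MS/MS with channel sums equalised, and thermal stability was reported relative to control samples from duplicates, on a log2 fold-change scale.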
For GMPPB isoform 2 (UniProt Q9Y5P6), the log2 fold change was inactive: -0.013. Then GK (UniProt P32189), with inactive: -0.013; and GRN (UniProt P28799), with inactive: 0.021.

Take GRB2 (UniProt P62993): the log2 fold change was inactive: 0.032. With GINS4 (UniProt Q9BRT9), the log2 fold change was inactive: 0.076. Then GRAP2 (UniProt O75791), with inactive: 0.088; and GPD1L (UniProt Q8N335), with inactive: 0.016. Consider GNA13 (UniProt Q14344), for which the log2 fold change is inactive: -0.055. Then GOSR1 (UniProt O95249), with inactive: 0.024. Regarding GPATCH8 (UniProt Q9UKJ3), the log2 fold change was inactive: -0.047. Consider GPALPP1 (UniProt Q8IXQ4), for which the log2 fold change is inactive: -0.09. As for GPD2 (UniProt P43304), the log2 fold change is inactive: -0.057.

Take GPRIN1 (UniProt Q7Z2K8): the log2 fold change is inactive: -0.005.

For the target GPN3 isoform 2 (UniProt Q9UHW5), the log2 fold change was inactive: -0.021. Consider GNPDA2 (UniProt Q8TDQ7), for which the log2 fold change was inactive: 0.051. In the case of GMPR2 isoform 2 (UniProt Q9P2T1), the log2 fold change was inactive: 0.007. In the case of GNE isoform 2 (UniProt Q9Y223) it was inactive: 0.039; in that of GPAA1 (UniProt O43292), inactive: 0.055; in that of GPR107 (UniProt Q5VW38), inactive: -0.059. As to GORASP2 isoform 3 (UniProt Q9H8Y8), the log2 fold change was inactive: 0.018. Take GOLIM4 (UniProt O00461): the log2 fold change was inactive: -0.062. As to GPN1 isoform 5 (UniProt Q9HCN4), the log2 fold change was inactive: -0.027.

These data come from the supplement of paper PMC10849652.
